# Out of some 400,000 compounds screened, about 13,000 (3.2%) were called active. The inconclusive results got no clear call from the source; some entries with a clear call stand among them for comparison. The call rests on the fitted dose curve; in most records, active means well fitted cell-killing curve with a large enough effect; inconclusive means small, poorly fitted or top-dose-only effect, or effect the other way; inactive means flat fitted curve, though single readings scatter. Where the call is inconclusive, the potency comes from a doubtful curve fit.
# Test: qHTS assay for MDR1-selective chemotherapeutics: Primary screen using the drug-selected MDR subline cells KB-V1; further: nearly all actives have a fitted effect of over 60% in size
# Conditions: KB-V1 MDR cells viability, CellTiter-Glo, 72 h; activity change, negative = cytotoxicity: at 46.1 µM (top of the series)
# Method in brief: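 Readout: CellTiter-Glo luminescence, 10 min after addition. Cells: KB-V1 MDR subline, 72 h at 37 degrees C with compound. Analysis: corrected, normalized data fitted to concentration-effect curves.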
# On the % scale 0 is the no-effect control and ±100 the full control effect; potency means the concentration at half of the fitted maximal effect.
Compound,"activity change, negative = cytotoxicity",Potency
COC(CNC(=O)C1CCCN(S(=O)(=O)c2c(C)noc2/C=C/c2cccs2)C1)OC (configuration not stated),inactive: 23.3%,–
CC(=O)c1cccc(NC(=O)Cn2cnc(S(=O)(=O)N3CCC(C)CC3)c2)c1,–,"inconclusive: 11.6 µM [rising, partial curve, poor fit]"
O=C(COC(=O)c1ccc(Cl)c(S(=O)(=O)N2CCCC2)c1)NC1CCCCC1,inactive: 6.91%,–
CC(C)C/C(O)=C/c1nc2cc(Cl)ccc2oc1=O,–,"inconclusive: 29.1 µM [cytotoxic, single point]"
COc1ccccc1CNC(=O)C(=O)NCC(c1cccs1)S(=O)(=O)c1ccc(F)cc1 (configuration not stated),inconclusive: -55%,–
Cc1cc(=O)[nH]c(NN)n1,inactive: 23.3%,–
O=C(C[n+]1ccccc1)N/N=C/c1ccc(Cl)cc1,–,"inconclusive: 29.1 µM [rising, single point]"
O=C(Cc1cccs1)NCc1ccccc1Br,–,"inconclusive: 36.6 µM [cytotoxic, single point]"
C=CCn1c(SCc2ccc(C#N)cc2)nnc1-c1ccccc1,–,active: 9.2 µM
CCCCC(=O)Nc1cccc(-c2nc3ncccc3o2)c1,–,"inconclusive: 16.4 µM [cytotoxic, single point]"
Cc1nn(C)c(Oc2cccc(Cl)c2)c1C(=O)Nc1ccc(F)cc1F,–,active: 18.4 µM
O=C(N/N=C/c1cn(Cc2ccccc2)c2ccccc12)c1cc(O)cc(O)c1,inactive: 17.2%,–
COc1ccccc1C(=O)NNC(=O)C1CCCO1 (configuration not stated),inactive: 15.4%,–
COc1ccccc1N1CCN(C/C(C)=C/c2ccccc2)CC1,–,"inconclusive: 23.1 µM [cytotoxic, partial curve, poor fit]"
CSc1ncc(Cl)c(C(=O)Nc2ccccc2Cl)n1,–,"inconclusive: 29.1 µM [cytotoxic, single point]"
CCOC(=O)CNC(=O)Nc1cc(C(=O)NCc2cccc(F)c2)ccc1N1CCCC1,–,"inconclusive: 8.2 µM [rising, partial curve]"
Cc1ccc(S(=O)(=O)NCCC(=O)N2CCN(S(=O)(=O)c3ccccc3)CC2)cc1C,inactive: 4.48%,–
O=C(c1cc(C2CCCCN2C(=O)CCCc2ccccc2)on1)N1CCOCC1 (configuration not stated),inactive: -16.6%,–
CCOc1ccccc1NC(=O)CSc1nc2ccccc2c2nc(CCn3cncc3C)nn12,inactive: 0.916%,–
O=C(Nc1ccc(-c2noc(-c3cccs3)n2)cc1)c1cccnc1,–,"inconclusive: 29.1 µM [cytotoxic, single point]"
CC(=O)c1ccc(NC(=O)c2ccc(CSc3ccccc3)o2)cc1,–,"inconclusive: 29.1 µM [cytotoxic, single point]"
CCOc1ccc(CCNC(=O)c2cccc(S(=O)(=O)N3CCCCC3)c2)cc1OCC,–,active: 6.51 µM
CN1CCN(c2ccc(NC(=O)c3ccc(-c4ccc(Cl)cc4)o3)cc2)CC1,–,"inconclusive: 16.4 µM [cytotoxic, partial curve, poor fit]"
CNC(=O)CSc1nnc(-c2ccccn2)n1Cc1ccco1,inactive: -11.2%,–

# Some of these compounds in order of heavy-atom count, low to high.
Compound,"activity change, negative = cytotoxicity",Potency
CSc1ncc(Cl)c(C(=O)Nc2ccccc2Cl)n1,–,"inconclusive: 29.1 µM [cytotoxic, single point]"
COC(CNC(=O)C1CCCN(S(=O)(=O)c2c(C)noc2/C=C/c2cccs2)C1)OC (configuration not stated),inactive: 23.3%,–
CCOc1ccccc1NC(=O)CSc1nc2ccccc2c2nc(CCn3cncc3C)nn12,inactive: 0.916%,–

# Following part:

Compound,"activity change, negative = cytotoxicity",Potency
COc1ccc(NC(=O)c2cc(-c3cc(OC)c(OC)c(OC)c3)nc3ccccc23)cc1OC,–,active: 20.6 µM
COC(=O)c1cnc(Nc2nc(C(N)Cc3ccccc3)cs2)nc1C(F)(F)F (configuration not stated),–,"inconclusive: 29.1 µM [cytotoxic, single point]"
Cc1cc(C)n2nc(C(=O)NC(c3ccccc3)c3ccccc3)nc2n1,–,"inconclusive: 13 µM [cytotoxic, partial curve]"
CCOC(=O)c1sc(NC(=O)c2c(C)nn(Cc3ccccc3)c2C)cc1C,–,"inconclusive: 29.1 µM [cytotoxic, single point]"
Cn1c(=O)c2c(nc(NC3CCCCC3)n2CC(O)COc2ccccc2)n(C)c1=O (configuration not stated),–,"inconclusive: 20.6 µM [cytotoxic, single point]"
Cc1ccc(-n2c(SCC(=O)N(C)C3CCS(=O)(=O)C3)nc3ccccc3c2=O)c(C)c1 (configuration not stated),–,"inconclusive: 14.6 µM [cytotoxic, partial curve]"
CC1CN(Cc2ccccc2)c2ccccc2NC1=S (configuration not stated),–,active: 20.6 µM
Cc1onc(-c2ccccc2)c1C(=O)NC(=S)NNC(=O)c1ccc(O)cc1O,–,active: 3.26 µM
O=C(/C=C/Nc1ccc(F)cc1F)c1cccs1,–,"inconclusive: 23.1 µM [cytotoxic, single point]"
Cc1cc(S(=O)(=O)NCc2ccncc2)c(C)cc1Br,–,"inconclusive: 29.1 µM [cytotoxic, single point]"
CCN1CCN(CC(O)COC(c2ccccc2)c2ccccc2)CC1 (configuration not stated),–,"inconclusive: 2.31 µM [rising, full curve]"
O=C1[C@@H]2CSC(c3ccc(F)cc3)N2C(=O)N1c1ccc(Cl)cc1 (some centres not stated),inactive: -1.51%,–
O=C(CC1SC(N2CCCC2)=NC1=O)Nc1ccc(C(=O)Nc2ncccc2O)cc1 (configuration not stated),inactive: 1.61%,–
CCC(=O)N1CCNC(=O)C1CC(=O)Nc1ccc(C)c(Cl)c1 (configuration not stated),–,"inconclusive: 1.46 µM [rising, full curve, poor fit]"
COc1cccc(OC)c1-c1nn2c(-c3cc(-c4ccccc4)n[nH]3)nnc2s1,–,"inconclusive: 9.2 µM [cytotoxic, partial curve, poor fit]"
Cc1ccc2oc(=O)c3cnn(CC(=O)NCc4ccccc4Cl)c3c2c1,–,"inconclusive: 8.2 µM [rising, partial curve]"
CC(C)Cn1c(N)c(C(=O)CSc2nnc(-c3ccco3)n2C)c(=O)n(C)c1=O,inactive: 0%,–
Nc1nonc1-n1nnc(C(=O)N/N=C/c2ccccc2)c1CSc1ccccc1,inactive: 0.46%,–
CC(=O)N(CCC(Cc1ccccc1)c1ccc2c(c1)OCO2)Cc1ccc(Cl)cc1 (configuration not stated),–,"inconclusive: 20.6 µM [cytotoxic, single point]"
Cc1ccc(CN2CCc3[nH]c(=S)[nH]c(=O)c3C2)cc1,–,"inconclusive: 0.58 µM [rising, full curve]"
COc1ccc(/C=N/NC(=O)c2ccoc2C)cc1COc1ccc(Cl)cc1,–,"inconclusive: 29.1 µM [cytotoxic, single point]"
O=C1CC(Cc2ccc(Br)cc2)C(=O)N1c1ccccc1 (configuration not stated),–,"inconclusive: 32.6 µM [rising, single point]"
CCCCOCCCNC(=O)C[C@@H]1C[C@@]2(C(=O)OC)CCCCC=C2N(Cc2ccc(Cl)cc2Cl)C1=O,–,"inconclusive: 29.1 µM [cytotoxic, single point]"
